This is an account of results in patent publication US11236072B2, “N-[(pyrimidinylamino)propanyl]-,n-[pyridylamino)propanyl]- and n-[(pyrazinylaminol)propanyl]arylcarboxamides” (Boehringer Ingelheim International GmbH, priority 2017, dated 2022).

By UniProt entry, the sequences of proteins in these tests, tags left out.
UniProt O43614, whole entry: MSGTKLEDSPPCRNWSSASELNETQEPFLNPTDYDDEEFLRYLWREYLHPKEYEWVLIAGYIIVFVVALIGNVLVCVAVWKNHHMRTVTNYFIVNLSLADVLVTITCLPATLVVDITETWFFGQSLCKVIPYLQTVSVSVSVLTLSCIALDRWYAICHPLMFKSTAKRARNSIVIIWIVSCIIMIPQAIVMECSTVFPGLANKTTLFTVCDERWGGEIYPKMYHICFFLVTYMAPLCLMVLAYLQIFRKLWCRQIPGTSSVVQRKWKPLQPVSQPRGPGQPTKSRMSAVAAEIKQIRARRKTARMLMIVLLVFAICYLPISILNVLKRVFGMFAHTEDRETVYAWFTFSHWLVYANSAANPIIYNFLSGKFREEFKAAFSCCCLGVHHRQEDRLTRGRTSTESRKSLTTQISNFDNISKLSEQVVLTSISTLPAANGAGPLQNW
UniProt O43613, whole entry: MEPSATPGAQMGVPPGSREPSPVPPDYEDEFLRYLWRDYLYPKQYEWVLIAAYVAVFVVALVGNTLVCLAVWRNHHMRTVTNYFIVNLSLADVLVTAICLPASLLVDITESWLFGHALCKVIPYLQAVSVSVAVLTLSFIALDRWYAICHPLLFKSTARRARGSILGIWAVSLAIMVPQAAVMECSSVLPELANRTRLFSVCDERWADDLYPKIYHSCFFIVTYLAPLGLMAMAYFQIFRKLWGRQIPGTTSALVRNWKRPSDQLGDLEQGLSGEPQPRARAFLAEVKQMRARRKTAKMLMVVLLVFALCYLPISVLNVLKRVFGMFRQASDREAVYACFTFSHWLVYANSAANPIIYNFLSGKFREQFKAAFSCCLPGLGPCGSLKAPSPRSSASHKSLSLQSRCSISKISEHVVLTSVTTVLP

In one series the test system is MDCK-MDR1 cells. Conditions: pH 7.4.
Another series addresses human orexin 2 receptor (Homo sapiens, UniProt O43614).
Another series concerns the target human Orexin 1 receptor (Homo sapiens, UniProt O43613). The experiment in a line: Assay A: in vitro testing of OX1R potency, OX1R IP1. In kind it is cell-based. To be noted: for Kb: read-out: OX1R Kb, 50 nM Orexin A concentration.

Structures were worked out from names or drawings and are uncertain.

Usually efflux ratio stands for the permeability from basolateral to apical divided by that in the opposite direction, in the common usage. Regarding `CCN(C(=O)c1cccc(F)c1-n1nccn1)[C@@H](C)CNc1ncc(Cl)cn1`, the efflux ratio in the series on MDCK-MDR1 cells is below 3. In addition, the Kb on human orexin 2 receptor stood at 26.3 nM; on human Orexin 1 receptor, 0.21 nM.

With `CCN(C(=O)c1cc(Cl)cnc1-n1nccn1)[C@@H](C)CNc1ncc(C(F)(F)F)cn1`, in the series with MDCK-MDR1 cells, the efflux ratio is below 3. The figures for the Kb on human orexin 2 receptor and on human Orexin 1 receptor were 167 nM and 0.166 nM, respectively. For the same compound, on human Orexin 1 receptor (compared to Example 73 in WO2016/034882), the “higher potency (OX1R)” value is “approximately 2 fold”.

Consider `CCN(C(=O)c1cc(F)cc(F)c1-n1nccn1)[C@@H](C)CNc1ncc(Br)cn1`, for which the efflux ratio with MDCK-MDR1 cells is below 3. Moreover, the figures for the Kb on human orexin 2 receptor and on human Orexin 1 receptor were 42.1 nM and 0.184 nM, respectively.
